# In patent US12156523B2 (priority 2017, dated 2024):
# Some entries share one result that the patent states for a list of compounds.
# Tested on: rice (cultivar: Jikkoku)
# Assay: Barrier to growth of rice (phytotoxicity, Example 18)
# Assay type: in vivo
# Conditions: untreated plant length set as 100; 0.2 mg/mL acetone solution diluted 10-fold, 0.25 mL per 1 mL of soil; first leaf stage; example compounds
# Procedure: The acetone solutions of each example compound and compounds described in the prior art documents shown in the below-mentioned Table 38 (hereinafter, referred to as compounds of Comparative Examples 1 to 5, respectively) were prepared such that the content thereof became 0.2 mg/mL, and then diluted to 10-fold with water to be subjected to conducting test. 0.25 mL of the diluted solution per 1 mL of the soil was made to be absorbed in the soil. Then, rice seeds (cultivar: Jikkoku) subjected to forcing to germination were seeded in the soil to be cultivated in plant cultivation chambers. The plant length of the rice grown to the first leaf stage was measured, and the ratio of the plant length, relative to the untreated plant length set as 100, (hereinafter, referred to as “the ratio of plant length relative to untreated plant length”) was calculated. The presence or absence of the barrier to growth was determined from the calculated ratio.
row,SMILES,Ratio of plant length relative to untreated plant length
1,CC(NC(=O)c1cc(F)nc(F)c1F)c1ccccc1 (stereo not drawn) [Example 1-85],≥ 80
2,COC(=O)CNC(=O)c1cc(F)nc(F)c1F [Example 1-86],≥ 80
3,O=C(NCCBr)c1cc(F)nc(F)c1F [Example 1-87],≥ 80
4,CCCNC(=O)c1cc(F)nc(F)c1F [Example 1-88],≥ 80
5,CC(C)(C)OC(=O)NCCNC(=O)c1cc(F)nc(F)c1F [Example 1-89],≥ 80
6,C=CCNC(=O)c1cc(F)nc(F)c1F [Example 1-90],≥ 80
7,N#CCNC(=O)c1cc(F)nc(F)c1F [Example 1-91],≥ 80
8,CNC(=O)c1cc(F)nc(F)c1F [Example 1-92],≥ 80
9,O=C(NC(=O)c1cc(F)nc(F)c1F)c1ccccc1 [Example 1-93],≥ 80
10,O=C(NC1CC1)c1cc(F)nc(F)c1F [Example 1-95],≥ 80
11,CCCCCCCCNC(=O)c1cc(F)nc(F)c1F [Example 1-96],≥ 80
12,CONC(=O)c1cc(F)nc(F)c1F [Example 1-97],≥ 80
13,O=C(Nc1ccccc1)c1cc(F)nc(F)c1F [Example 1-98],≥ 80
14,O=C(NCc1ccccc1)c1cc(NC(=O)c2cc(F)nc(F)c2F)ccc1Cl [Example 1-99],≥ 80
15,O=C(OCc1ccccc1Cl)c1cc(F)nc(F)c1F [Example 1-100],≥ 80
16,N#Cc1ccccc1OC(=O)c1cc(F)nc(F)c1F [Example 1-101],≥ 80
17,CC(=O)Oc1ccccc1COC(=O)c1cc(F)nc(F)c1F [Example 1-102],≥ 80
18,COc1ccccc1OC(=O)c1cc(F)nc(F)c1F [Example 1-103],≥ 80
19,O=C(OCc1snc(Cl)c1Cl)c1cc(F)nc(F)c1F [Example 1-104],≥ 80
20,O=C(OCc1cccc(Cl)c1)c1cc(F)nc(F)c1F [Example 1-105],≥ 80
21,O=C(OCc1ccc(Cl)cc1)c1cc(F)nc(F)c1F [Example 1-106],≥ 80
22,O=C(Oc1ccc(Cl)cc1)c1cc(F)nc(F)c1F [Example 1-107],≥ 80
23,N#Cc1ccc(OC(=O)c2cc(F)nc(F)c2F)cc1 [Example 1-108],≥ 80
24,COc1ccc(COC(=O)c2cc(F)nc(F)c2F)cc1 [Example 1-109],≥ 80
25,Cc1ccc(COC(=O)c2cc(F)nc(F)c2F)cc1 [Example 1-110],≥ 80
26,Cc1ccc(OC(=O)c2cc(F)nc(F)c2F)cc1 [Example 1-111],≥ 80

row,SMILES,Ratio of plant length relative to untreated plant length
1,O=C(Oc1ccc([N+](=O)[O-])cc1)c1cc(F)nc(F)c1F [Example 1-112],≥ 80
2,Cc1oc(=O)oc1COC(=O)c1cc(F)nc(F)c1F [Example 1-113],≥ 80
3,O=C(OCCC(F)(F)F)c1cc(F)nc(F)c1F [Example 1-116],≥ 80
4,CCOC(=O)c1cc(F)nc(F)c1F [Example 1-117],≥ 80
5,CC(C)OC(=O)c1cc(F)nc(F)c1F [Example 1-118],≥ 80
6,O=C(OCC(F)(F)F)c1cc(F)nc(F)c1F [Example 1-120],≥ 80
7,CC(C)COC(=O)c1cc(F)nc(F)c1F [Example 1-121],≥ 80
8,O=C(OCC=C(Cl)Cl)c1cc(F)nc(F)c1F [Example 1-122],≥ 80
9,CCCOC(=O)c1cc(F)nc(F)c1F [Example 1-123],≥ 80
10,O=C(OC/C=C/c1ccccc1)c1cc(F)nc(F)c1F [Example 1-124],≥ 80
11,CCOC(=O)COC(=O)c1cc(F)nc(F)c1F [Example 1-125],≥ 80
12,COC(=O)c1cc(F)nc(F)c1F [Example 1-126],≥ 80
13,CCCCCCCCOC(=O)c1cc(F)nc(F)c1F [Example 1-127],≥ 80
14,C=CCOC(=O)c1cc(F)nc(F)c1F [Example 1-128],≥ 80
15,O=C(Sc1ccccc1)c1cc(F)nc(F)c1F [Example 1-130],≥ 80
16,COc1ccccc1NC(=O)c1cc(F)nc(F)c1 [Example 1-131],≥ 80
17,COc1cc(NC(=O)c2cc(F)nc(F)c2)cc(OC)c1 [Example 1-132],≥ 80
18,Cc1ccc(NC(=O)c2cc(F)nc(F)c2)cc1Cl [Example 1-133],≥ 80
19,CCc1ccc(NC(=O)c2cc(F)nc(F)c2)cc1 [Example 1-136],≥ 80
20,CC(C)Oc1ccc(NC(=O)c2cc(F)nc(F)c2)cc1 [Example 1-137],≥ 80
21,COc1ccc(NC(=O)c2cc(F)nc(F)c2)cc1 [Example 1-138],≥ 80
22,O=C(Nc1ccc(C(F)(F)F)cc1)c1cc(F)nc(F)c1 [Example 1-139],≥ 80
23,CC(NC(=O)c1cc(F)nc(F)c1)c1ccc(Cl)cc1 (stereo not drawn) [Example 1-141],≥ 80
24,CCCNC(=O)c1cc(F)nc(F)c1 [Example 1-142],≥ 80
25,O=C(Nc1ccccc1)c1cc(F)nc(F)c1 [Example 1-143],≥ 80
26,O=C(NCCOC(=O)c1cc(F)nc(F)c1F)c1cc(F)nc(F)c1F [Example 1-148],≥ 80

row,SMILES,Ratio of plant length relative to untreated plant length
1,O=C(Nc1ccc(NC(=O)c2cc(F)nc(F)c2F)cc1)c1cc(F)nc(F)c1F [Example 1-149],≥ 80
2,O=C(NCCNC(=O)c1cc(F)nc(F)c1F)c1cc(F)nc(F)c1F [Example 1-150],≥ 80
3,O=C(OC/C=C\COC(=O)c1cc(F)nc(F)c1F)c1cc(F)nc(F)c1F [Example 1-151],≥ 80
4,O=C(OC/C=C/COC(=O)c1cc(F)nc(F)c1F)c1cc(F)nc(F)c1F [Example 1-152],≥ 80
5,O=C(Nc1ccc(Cl)c(Cl)c1)c1cc(F)nc(F)c1 [Example 1-155],≥ 80
6,CC(C)(C)c1ccc(NC(=O)c2cc(F)nc(F)c2)cc1 [Example 1-156],≥ 80
7,CC(C)NC(=O)c1cc(F)nc(F)c1 [Example 1-158],≥ 80
8,C#CCNC(=O)c1cc(F)nc(F)c1 [Example 1-160],≥ 80
9,O=C(Nc1ccccn1)c1cc(F)nc(F)c1 [Example 1-161],≥ 80
10,O=C(NS(=O)(=O)c1ccccc1)c1cc(F)nc(F)c1F [Example 1-164],≥ 80
11,Cc1ccc(NC(=S)c2cc(F)nc(F)c2F)cc1Cl [Example 1-165],≥ 80
12,CC(C)Oc1cccc(NC(=S)c2cc(F)nc(F)c2F)c1 [Example 1-166],≥ 80
13,O=C(Nc1cccc(C(F)(F)F)c1)c1cc(F)nc(F)c1F [Example 1-167],≥ 80
14,CCc1cccc(NC(=O)c2cc(F)nc(F)c2)c1 [Example 1-168],≥ 80
15,CCc1ccccc1NC(=O)c1cc(F)nc(F)c1 [Example 1-169],≥ 80
16,Cc1ccc(NC(=O)c2cc(F)nc(F)c2)cc1 [Example 1-170],≥ 80
17,O=C(Nc1cccnc1)c1cc(F)nc(F)c1 [Example 1-171],≥ 80
18,O=C(Nc1ccncc1)c1cc(F)nc(F)c1 [Example 1-172],≥ 80
19,O=C(Nc1ccccc1[N+](=O)[O-])c1cc(F)nc(F)c1 [Example 1-173],≥ 80
20,O=C(OCc1ccc(Cl)nc1)c1cc(F)nc(F)c1 [Example 1-174],≥ 80
21,O=C(Nc1cccc([N+](=O)[O-])c1)c1cc(F)nc(F)c1 [Example 1-175],≥ 80
22,O=C(Nc1ccc([N+](=O)[O-])cc1)c1cc(F)nc(F)c1 [Example 1-176],≥ 80
23,CC(C)c1ccccc1NC(=O)c1cc(F)nc(F)c1 [Example 1-177],≥ 80
24,CC(C)c1cccc(NC(=O)c2cc(F)nc(F)c2)c1 [Example 1-178],≥ 80
25,CC(C)c1ccc(NC(=O)c2cc(F)nc(F)c2)cc1 [Example 1-179],≥ 80
26,CCCCc1ccc(NC(=O)c2cc(F)nc(F)c2)cc1 [Example 1-180],≥ 80
